# Library screen at single concentrations

By UniProt entry, the sequences of proteins in these tests, tags left out.
UniProt P9WPC5, whole entry: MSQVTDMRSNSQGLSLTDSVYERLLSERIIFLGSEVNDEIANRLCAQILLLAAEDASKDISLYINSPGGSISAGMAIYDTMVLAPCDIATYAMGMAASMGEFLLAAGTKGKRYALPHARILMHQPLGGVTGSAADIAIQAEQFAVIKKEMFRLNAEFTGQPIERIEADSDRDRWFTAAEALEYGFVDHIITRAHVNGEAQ
UniProt P9WPC3, whole entry partner: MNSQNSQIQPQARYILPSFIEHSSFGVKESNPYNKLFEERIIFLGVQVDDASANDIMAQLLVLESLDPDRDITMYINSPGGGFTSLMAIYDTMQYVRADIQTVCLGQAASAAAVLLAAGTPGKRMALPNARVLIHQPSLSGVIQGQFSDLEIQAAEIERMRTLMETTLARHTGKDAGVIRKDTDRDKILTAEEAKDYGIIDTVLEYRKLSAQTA

Measurements from “University of Dundee, Small-Polar-MMV Screening Library” (2021), ChEMBL document CHEMBL3988442.

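Protease assay of ClpP1P2, read by the AMC dye that it sets free. Target: ClpP1P2, Mycobacterium tuberculosis (UniProt P9WPC5 and UniProt P9WPC3). Compounds at 50 µM. Higher reads as stronger inhibition, judged from the few compounds that gave an IC50. Most other retested compounds had strongly negative values. Size under these conditions: about 69,000 compounds, about 10 of them at 50% or above in at least one test.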

Results are given as percent effect.
How 0% and 100% were set is not recorded. Most values in the screen are low, and negative values occur.
This is an unselected part of the compounds tested.

For CNC(=O)CCS(=O)(=O)Cc1coc(-c2ccc(F)cc2)n1 the result was 17.4%. Cn1cc(NC(=O)Nc2ccc3c(c2)OCO3)cn1 gave 1.594%. For COc1ccc(C(=O)NC2CCN(c3ncccn3)CC2)cc1F the result was 7.119%. For Cc1cc(C)n(C2CN(Cc3ccc(C(=O)N4CCCC4)cc3)C2)n1 the result was -3.418%. Result for Cc1cc(C(=O)NCc2ccc(F)cc2)c2c(C3CCCN3)noc2n1 (stereo not shown) was 12.33%. C[S+]([O-])CCNC(=O)N1CCSC2(CCCCC2)C1 (stereo not shown) gave -9.052%. For CCN1CC2(CC1=O)CN(Cc1cccs1)CCN(C(=O)C(C)C)C2 (stereo not shown) the result was 0.2645%. CN1CCN(C(=O)N2CCCC2)Cc2cccnc21 gave -0.758%.

With O=C(Nc1nccs1)N(CCO)Cc1ccsc1 the screen gave 13.09%. Result for CCCc1cc(=O)[nH]c2nnc(SCC(C)=O)n12 was 9.908%. With N#Cc1cccc(S(=O)(=O)N2CCCCC2C(N)=O)c1 (stereo not shown) the screen gave 2.455%. CNS(=O)(=O)c1ccc(CN2CCCN(c3ccccc3)CC2)cc1 read 12.31%. Result for COC(=O)c1ccc(F)c(Cn2nc(C)cc2C)c1 was -11.42%. Cc1n[nH]c(C)c1CCNC(=O)Nc1ccc(S(C)(=O)=O)cc1 read -3.128%. CNC(=O)c1csc(-c2cccnc2)n1 read -9.399%. Result for Cc1nn(C)cc1CN1CCC(c2ncc(Cl)cc2S(C)(=O)=O)CC1 was -7.651%.

For CC(C)c1ncc(CN2C[C@@H](CN3CCC(CO)CC3)[C@@H](CO)C2)cn1 the result was -4.391%. CCN(CC)C(=O)CSc1nc2nc(C)ccc2o1 gave -11.93%. With O=C(NCc1cccnc1)[C@H]1CC[C@@H]2[C@@H](CCN2c2ncccn2)O1 the screen gave 5.942%. With CN(C)S(=O)(=O)N1CCC[C@]2(C[C@@H](Oc3ncccc3F)CO2)C1 the screen gave 8.955%. c1cc(CCN2CCCC2CN2CCCC2)ccn1 (stereo not shown) read -3.108%. Result for CC[C@H]1COCCN1C(=O)c1cnc(-c2ccccc2)nc1C was -9.545%. For CNC(=O)Cc1ccc(NC(=O)NC2(c3cccc(F)c3)CC2)cc1 the result was -17.96%. CCOCC1CN(C(=O)c2ccoc2C)Cc2cnn(C)c21 (stereo not shown) gave -12.48%.

For N#Cc1cccc(SCCS(N)(=O)=O)c1 the result was 4.475%. With Cc1cc(-c2cnc(NC3CCCC3)nc2-c2ccco2)on1 the screen gave -7.818%. O=C1CCc2cc(NC(=O)N3CCCN(Cc4cccs4)CC3)ccc21 gave 4.301%. Result for COc1ccc(Cc2noc(-c3ccc(NC(C)CO)nc3)n2)cc1 (stereo not shown) was -25.4%. With O=C(c1cc[nH]n1)N1CCCC(c2cccc(-n3ccnc3)n2)C1 (stereo not shown) the screen gave 0.546%. Cc1ccccc1-c1cncc(C2CCN(CC(=O)N(C)C)CC2)n1 read 3.424%. Cc1ccc(C2(O)CCN(Cc3nnc(-c4cccnc4)o3)CC2)nc1 gave 2.007%. CCN(CC)C(=O)CN1CCCC1C(=O)N(C)C (stereo not shown) read -13.78%.

c1cc(CN2CCN(Cc3ccon3)C3(CCCCC3)C2)no1 gave -0.9685%. Result for NCc1ccc(Oc2cccc(Cl)c2Cl)cc1 was 6.93%. With O=C(c1ccno1)N1CC(c2nc(-c3ccco3)no2)C1 the screen gave -9.843%. For COc1cccc(C(=O)N2CCc3c(nc(N)[nH]c3=O)C2)c1OC the result was -6.926%. COCCC(=O)N1CCC2(CC1)CN(S(C)(=O)=O)Cc1ccccc1O2 read 8.427%. For COc1cccc2c1OCC(C(=O)N1CCC(N3CCSCC3)CC1)C2 (stereo not shown) the result was -0.871%. Result for COc1ccc(-n2ccc(C(=O)N3CCN(C)CC3C)n2)cc1 (stereo not shown) was 2.834%. Result for CCN1CCCC(O)(CN(C)Cc2c(C)nn(C)c2C)C1 (stereo not shown) was -12.86%.

c1ccc(Cc2nc(C3CC3)nn2-c2ccc3c(c2)OCCO3)nc1 read 10.82%. For CCn1c(C2CCCN(Cc3nccn3CCOC)C2)nn(C)c1=O (stereo not shown) the result was 0.13%.